No constants are given. Whether binding was seen depends on the method and setting. Binding seen in cells or lysates may run through a third protein. Some entries that bind do so weakly or less than the wild type. Where a sequence is shown, tags or fusion partners need not be part of it.
T1: HA-tagged AIM2 (AIM2HA), transiently expressed in HEK293T cells (UniProt Q91VJ1)
T1 sequence: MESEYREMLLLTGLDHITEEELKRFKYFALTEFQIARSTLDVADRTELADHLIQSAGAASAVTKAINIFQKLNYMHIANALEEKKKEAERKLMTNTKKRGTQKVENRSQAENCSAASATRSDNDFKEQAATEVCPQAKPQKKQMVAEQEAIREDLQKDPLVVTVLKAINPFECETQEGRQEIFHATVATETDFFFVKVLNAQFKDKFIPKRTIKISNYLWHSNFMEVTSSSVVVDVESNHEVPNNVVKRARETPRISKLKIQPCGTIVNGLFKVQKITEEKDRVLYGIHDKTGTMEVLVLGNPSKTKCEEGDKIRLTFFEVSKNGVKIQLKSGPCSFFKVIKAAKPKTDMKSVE

T2: endogenous AIM2 of NR9456 macrophages (mouse (endogenous in NR9456)) (UniProt Q91VJ1)
T2 sequence: T1 sequence

B1: myc-tagged IFI205 (IFI205myc), transiently expressed in HEK293T cells (protein, UniProt Q8CGE8 1-404)
chain: MENEYKRLVLLEGLECINKHQFNLFKSLMVKDLNLEEDNQEKYTTFQIANMMVKKFPADAGLDRLINFCERVPTLKKRAEILKKERSEVTEETSLEINRQEASPATPTSTTSHMLASERGKTSTTQEETSTAQKRKGMSEEKTDVKKIKASGKADQPPCCEGPTATCQSPISQVSSSASSNIPSAKNQKSQPQNQNIPRGAVLHSEPLTVMVLTATDPFEYESPEHEVKNMFHATVATVSQYFHVKVFNIDLKEKFTKNNFITISNYFESKGILEINETSSVLEAAPKQMIEVPNCITRNANASPKICDIQKGTSGTVFYGVFTLHKKKVKTQNTSYEIKDGSGSIEVVGSGQWHNINCKEGDKLHLFCFHLKRERGQPKLVCGDHSFVKVTKAGKKKEASTVQ
B2: myc-tagged IFI205 (IFI205myc), stably expressed in NR9456 macrophages (protein, UniProt Q8CGE8 1-404)
chain: B1 chain

Assays:
[1] = molecular target: T1, HA-tagged AIM2 (AIM2HA), transiently expressed in HEK293T cells; test: co-IP; as a1, but IFI205myc, AIM2HA and STING-FLAG all three coexpressed in HEK293T cells; IP with anti-HA or anti-FLAG agarose beads; Western blot
[2] = molecular target: T1, HA-tagged AIM2 (AIM2HA), transiently expressed in HEK293T cells; test: co-IP; HEK293T cells cotransfected with two of the tagged proteins, lysed 48 h after transfection in RIPA buffer (50 mM Tris pH 7.4, 150 mM NaCl, 1 mM EDTA, 1% Triton X-100, 1% deoxycholate, 0.1% SDS); IP with anti-HA or anti-FLAG agarose beads at 4°C overnight; Western blot
[3] = molecular target: T2, endogenous AIM2 of NR9456 macrophages (mouse (endogenous in NR9456)); test: proximity ligation; Duolink in situ PLA in NR9456-IFI205myc or NR9456 cells, fixed with 4% paraformaldehyde and permeabilised with 0.5% Triton X-100; anti-myc, anti-AIM2 and anti-STING primary antibodies; also after siRNA knockdown of Trex1, Aim2 or Ifi205

Binder	binding [1]	binding [2]	binding [3]
B1	binds	binds	
B2			binds

— publication PMC5573678
